This passage reports binding results from PMC8319303, “MacroGreen, a simple tool for detection of ADP-ribosylated proteins” (Communications Biology, 2021).

Protein sequences, listed by entry. Tags and fused reporters are not part of them. Residues count along the entry.
UniProt P09874, residues 662-1011: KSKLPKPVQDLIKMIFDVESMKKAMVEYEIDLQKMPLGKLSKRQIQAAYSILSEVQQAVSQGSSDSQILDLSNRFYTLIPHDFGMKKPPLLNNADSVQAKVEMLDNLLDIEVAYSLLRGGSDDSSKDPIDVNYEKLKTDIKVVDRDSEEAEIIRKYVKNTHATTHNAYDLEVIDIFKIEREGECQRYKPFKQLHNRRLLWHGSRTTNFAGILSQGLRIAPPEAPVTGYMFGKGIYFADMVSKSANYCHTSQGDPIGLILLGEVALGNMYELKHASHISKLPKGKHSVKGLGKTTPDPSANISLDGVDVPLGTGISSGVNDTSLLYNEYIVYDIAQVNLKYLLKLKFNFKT

These are yes or no findings as the source states them, for the method shown. Some binding calls cover weakened binding; strength is not graded here.

In the test the target is PARP1 auto-MAR- and -PARylated in the presence of HPF1 (UniProt P09874). The test can be described thus: far-Western, overlay or dot blot; overlay in multiwell plates: MAR- or PARylated protein adsorbed to protein binding 96-well plates (MaxiSorp), blocked with 1% BSA, overlaid with the macrodomain-GFP fusion (1 µM in Fig. 2) in TBST pH 7.5 for 5 min at room temperature, washed, GFP fluorescence read; both purified.

B1: MacroGreen (Af1521-c007), Af1521 K35E,G42E,I144R,Y145R fused to GFP (other, Archaeoglobus fulgidus, UniProt O28751 1-192, looked up)
chain: MEVLFEAKVGDITLKLAQGDITQYPAKAIVNAANERLEHGGEVAYAIAKACAGDAGLYTEISKKAMREQFGRDYIDHGEVVVTPAMNLEERGIKYVFHTVGPICSGMWSEELKEKLYKAFLGPLEKAEEMGVESIAFPAVSAGRRGCDLEKVVETFLEAVKNFKGSAVKEVALVIYDRKSAEVALKVFERSL
notes: Archaeoglobus fulgidus macrodomain protein Af1521, full length, with K35E, G42E, I144R, Y145R; Synthetic codon-optimised cDNA in a pNIC28 derived vector; also called GFP-fusion quadruple mutant; source: E. coli BL21(DE3)T1R pRARE2, purified (IMAC, SEC); not shown: eGFP, C-terminal, kept
With B1, the binding entry is listed as “binds”.
